These are yes or no findings as the source states them, for the method shown. Binding seen in cells or lysates may run through a third protein. These calls come from enrichment with a bait or labelling near it, and not all partners need be listed. A no says only that the protein was not detected with the bait. Where a sequence is shown, tags or fusion partners need not be part of it.
B1: Neurospora crassa eIF3k (protein, UniProt Q7S2R9 1-237)
chain: MNGEDPQERPDFIRAIINGLERYNPEAAGTLEAYLTQQCEEKFCDCNANRALLKLYQLNPDRIKDEVITNILVKAMTQFPSPQFDLALHLLSPSQSNPGPNSSSELTEAVSKLRALNAQLEGAEYARFWATLDSDDLYADLTTDIAGFEDMIRVRIAQLVGQSYREIQFPVLESWLGLNNSEATTQFITETCGWKVEGDVVQIPKNADNEARKAEIREDVNVDMFARVIKRSWEESA
B2: Neurospora crassa eIF3j (protein, UniProt Q7S931 1-274)
chain: MSGKKWDEEEEESSAPNSPVLAPGRRRFDDEEGNESDVLDSWDAAEDSEVEREKAKKAAEAKAKAEAEAAANKKSKAQRIAERQAERARQLAEDSDAEEETEAERRERLRREQKESDLKHAEDLFAGIGISNDRKVVSKGTIVQIDPKDPNNTIDISTLALFNPTTKTQFETLRTTLGPMIGKLSPKPHYTLFLQEFSKQLAKDLKSDEIKKIASTLTALSNEKLKEEKAAEKGGKKSKAAKTKTSLAGVGRGGAIAEAHDTYDDDAFGDDDFM

Biological target: T1, C-terminally tagged Neurospora crassa eIF3l (Neurospora crassa) (UniProt Q7SB62)
T1 sequence: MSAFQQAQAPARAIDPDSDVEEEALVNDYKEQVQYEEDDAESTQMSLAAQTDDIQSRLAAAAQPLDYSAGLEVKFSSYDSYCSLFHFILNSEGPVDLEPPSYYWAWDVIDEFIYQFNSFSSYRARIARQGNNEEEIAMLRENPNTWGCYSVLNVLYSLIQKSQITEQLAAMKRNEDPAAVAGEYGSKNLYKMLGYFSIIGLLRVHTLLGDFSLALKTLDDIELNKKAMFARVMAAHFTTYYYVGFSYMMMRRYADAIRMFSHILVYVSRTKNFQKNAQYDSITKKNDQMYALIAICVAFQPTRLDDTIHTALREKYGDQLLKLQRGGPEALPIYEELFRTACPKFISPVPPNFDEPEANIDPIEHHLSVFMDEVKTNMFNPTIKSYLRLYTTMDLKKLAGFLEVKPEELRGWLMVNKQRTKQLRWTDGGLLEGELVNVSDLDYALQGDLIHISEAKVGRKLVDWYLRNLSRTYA
Assay: affinity purification with mass spectrometry; anti-FLAG affinity beads in N. crassa lysate (TBS, 0.5% Triton X-100, 10% glycerol), 4-20 h at 4°C, FLAG peptide elution; Coomassie gel, subunits identified by tandem mass spectrometry; C-terminally tagged eIF3l as bait

| Binder | binding |
| --- | --- |
| B1 | binds |
| B2 | no binding |

From article PMC3826745
